The values that follow come from paper PMC9667317.

Protein sequences, listed by entry. Tags and fused reporters are not part of them.
UniProt P00441: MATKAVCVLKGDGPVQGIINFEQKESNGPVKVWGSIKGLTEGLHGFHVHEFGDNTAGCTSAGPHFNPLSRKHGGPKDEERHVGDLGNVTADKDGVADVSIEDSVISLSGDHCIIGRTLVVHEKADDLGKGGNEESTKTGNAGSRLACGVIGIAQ
UniProt P00442: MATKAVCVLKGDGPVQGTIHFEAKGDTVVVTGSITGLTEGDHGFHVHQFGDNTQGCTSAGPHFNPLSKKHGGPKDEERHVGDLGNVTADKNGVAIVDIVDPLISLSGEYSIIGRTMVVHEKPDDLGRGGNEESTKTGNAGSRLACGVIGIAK

The assay deals with human WT 2Cu, 2Zn-SOD1 isolated from human erythrocytes (human) (UniProt P00441). The assay can be described thus: capillary electrophoresis; holo bovine SOD1 mixed with holo human SOD1 (both 2Cu, 2Zn, from erythrocytes), 15 μM dimer each ([SOD1]total = 30 μM), followed for 14 days; CE at 22 °C, storage at 15 °C, pH 7.4; both purified.

No constants are given. Whether binding was seen depends on the method and setting.

For the substance “bovine 2Cu, 2Zn-SOD1 isolated from cow erythrocytes (from UniProt P00442 1-152) (enzyme)”, the binding result is “no binding (tested: 15 μM dimer each, after 14 days)”.
